Data on 16 compounds can be found in PubChem BioAssay AID2685 (National Center for Advancing Translational Sciences (NCATS), 2010).

Some of the results follow. Shown are side measurements of this screen, not its main read-out; they come without a call. Compounds called inactive in the main read-out are mostly missing here. Potencies come from curve fits of mixed quality, noted in brackets.

A short description of this experiment: qHTS Assay for Lipid Storage Modulators in Drosophila S3 Cells.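 For cell number change: cells counted by Cell Tracker Red CMTPX staining in the red channel.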 Conditions: BODIPY lipid droplet fluorescence, 18-24 h; for cell number change: measured here: cell count max response, cells fed with added oleic acid. The method in brief: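 Drosophila S3 cells loaded with oleic acid (400 uM, as added) and compounds at several concentrations; lipid droplets imaged by 488-nm laser-scanning cytometry, 500–530 nm intensity and object ratio to cell channel. Percent activity normalized to 20 uM Triacsin C.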

Setting [1] is: measured here: lipid fluorescence (Fed channel) AC50, cells fed with added oleic acid.
Setting [2] is: measured here: cell number channel AC50, cells fed with added oleic acid.

The term AC50 denotes the concentration giving half of the maximal activity seen. A high value points to activity only at high concentration. For the compound `Cc1ccc(/C=C2\SC(=S)N(CCCC(=O)Nc3ccccc3C(=O)O)C2=O)cc1`, under setting [1], the AC50 is 1.3 µM [rising, full curve].

With `CCCCCCCN1C(Nc2ccccc2)=NC[C@@H]1Cc1ccccc1`, the cell number change was -31.7%. Besides, the AC50 under setting [2] was 23.1 µM [falling, single point].

Regarding `CC(C)C[C@@]12C(=O)N(c3cccc(Br)c3)C(=O)N1[C@H](c1ccc(F)cc1)[C@@H]1C(=O)N(C3CCCCC3)C(=O)[C@@H]12`, the cell number change was determined as 6.07%. Further, the AC50 under setting [2] was 6.51 µM [falling, single point].

For `COc1ccc(C)c2sc(N(CCN(C)C)C(=O)/C=C/c3cccs3)nc12`, the cell number change was -11.5%. In addition, under setting [2], the AC50 was 3.26 µM [rising, single point].

`CCOc1cnn(Cc2ccccc2)c(=O)c1SCc1ccccc1`: the cell number change was found to be 75.7%. The AC50 under setting [2] was 29.1 µM [rising, single point]. Moreover, under setting [1], the AC50 is 23.1 µM [rising, single point].

`COc1ccc(N(C(=O)c2ccc(S(=O)(=O)N3CCOCC3)cc2)C2C=CS(=O)(=O)C2)cc1` (configuration not stated): the cell number change stood at 1.78%. Under setting [1], the AC50 is 1.03 µM [falling, full curve, poor fit].

Take `OCCC1CN(Cc2cccn2-c2ncccn2)CCN1Cc1ccccc1` (configuration not stated): the cell number change is -7.33%.

For `COc1ccccc1C(=O)Nc1ccccc1C(=O)N1CCCC1`, the cell number change is 37.8%. Moreover, the AC50 under setting [2] was 3.66 µM [rising, single point]. For the same compound, the AC50 under setting [1] is 6.51 µM [falling, single point].

In the case of `O=C1c2ccccc2C(=O)N1CCCP(=O)(O)CCc1ccccc1`, the cell number change is -6.15%. Also, the AC50 under setting [1] was 0.366 µM [falling, partial curve].

Consider `COc1cccc(OCc2nnc3n2N=C(c2ccccc2)C(CC(=O)O)S3)c1` (configuration not stated), for which the cell number change was 25%. For the same compound, under setting [1], the AC50 is 6.51 µM [falling, single point].

For the compound `O=C1NC(=O)C(=O)N1`, the cell number change was -23.7%. Besides, the AC50 under setting [2] is 0.13 µM [falling, full curve, poor fit]. Also, the AC50 under setting [1] was 0.13 µM [falling, full curve, poor fit].

As to `CCn1c(SCc2ccc(OC)c(F)c2)nc2ccccc2c1=O`, the cell number change was -19%.

As for `CC(=O)N1[C@H](C)C=C[C@]1(Cc1ccccc1)C(=O)NCc1cc(F)cc(C(F)(F)F)c1`, the cell number change was 12.3%. Also, the AC50 under setting [2] was 0.326 µM [rising, partial curve, poor fit].

`NC(=O)c1cc(Cl)ccc1OCC(=O)N1CCCc2ccccc21`: the cell number change turned out to be 8.56%. Moreover, the AC50 under setting [1] was 0.116 µM [rising, full curve, poor fit].

As to `N#Cc1ccc(COC(=O)CC(NC(N)=O)c2ccc(Cl)cc2)cc1` (configuration not stated), the cell number change was found to be 12.8%. Further, under setting [2], the AC50 is 3.66 µM [rising, single point].

`c1coc(CNc2c3c(nc4ncnn24)CCC3)c1`: the cell number change was 6.14%. Under setting [2], the AC50 is 6.51 µM [rising, single point].
